The source of these data is paper PMC7109056.

The exact form of at least one protein or probe is not confirmed.

For the data set, the system named is MdbHLH3-His (Malus domestica). Put plainly: EMSA. To be noted: unlabeled same-sequence probe competes in proportion to amount; LightShift chemiluminescent EMSA kit (Thermo), biotin-labeled probe; pH and temperature not stated (as in Hu et al.); recombinant protein; protein details: His; label: biotin (probe), unlabeled as competitor. In general terms: Mobility shift assays separate free from complexed probe on a gel.

Regarding “GTTTCGTAAAATTTGTTTTCATTTGTTGGTGGAGAAAAG (double strand) [MdDEP1 promoter E-box2 probe]”, the binding result is “binds”.
